Test results from publication PMC10645886.
These are yes or no findings as the source states them, for the method shown. In cells and extracts the contact can be indirect. These calls come from enrichment with a bait or labelling near it, and not all partners need be listed.

Chains of the proteins cited; added tags and fusions are not shown. Residues count along the entry.
UniProt Q7Z434: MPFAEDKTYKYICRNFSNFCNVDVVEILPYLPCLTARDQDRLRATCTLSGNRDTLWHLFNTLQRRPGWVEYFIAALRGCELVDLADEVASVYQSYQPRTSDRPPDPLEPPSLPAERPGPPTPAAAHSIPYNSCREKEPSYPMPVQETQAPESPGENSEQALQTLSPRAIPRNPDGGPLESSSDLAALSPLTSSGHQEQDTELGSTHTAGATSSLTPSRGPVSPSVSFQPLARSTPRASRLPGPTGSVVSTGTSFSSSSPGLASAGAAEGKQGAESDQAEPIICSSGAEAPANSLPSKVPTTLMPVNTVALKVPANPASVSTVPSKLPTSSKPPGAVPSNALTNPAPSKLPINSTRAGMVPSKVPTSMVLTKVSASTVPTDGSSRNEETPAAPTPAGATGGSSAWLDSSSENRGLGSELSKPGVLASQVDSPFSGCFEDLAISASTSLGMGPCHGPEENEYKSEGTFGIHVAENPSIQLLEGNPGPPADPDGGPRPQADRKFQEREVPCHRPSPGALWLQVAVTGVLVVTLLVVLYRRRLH
UniProt Q9UHD2: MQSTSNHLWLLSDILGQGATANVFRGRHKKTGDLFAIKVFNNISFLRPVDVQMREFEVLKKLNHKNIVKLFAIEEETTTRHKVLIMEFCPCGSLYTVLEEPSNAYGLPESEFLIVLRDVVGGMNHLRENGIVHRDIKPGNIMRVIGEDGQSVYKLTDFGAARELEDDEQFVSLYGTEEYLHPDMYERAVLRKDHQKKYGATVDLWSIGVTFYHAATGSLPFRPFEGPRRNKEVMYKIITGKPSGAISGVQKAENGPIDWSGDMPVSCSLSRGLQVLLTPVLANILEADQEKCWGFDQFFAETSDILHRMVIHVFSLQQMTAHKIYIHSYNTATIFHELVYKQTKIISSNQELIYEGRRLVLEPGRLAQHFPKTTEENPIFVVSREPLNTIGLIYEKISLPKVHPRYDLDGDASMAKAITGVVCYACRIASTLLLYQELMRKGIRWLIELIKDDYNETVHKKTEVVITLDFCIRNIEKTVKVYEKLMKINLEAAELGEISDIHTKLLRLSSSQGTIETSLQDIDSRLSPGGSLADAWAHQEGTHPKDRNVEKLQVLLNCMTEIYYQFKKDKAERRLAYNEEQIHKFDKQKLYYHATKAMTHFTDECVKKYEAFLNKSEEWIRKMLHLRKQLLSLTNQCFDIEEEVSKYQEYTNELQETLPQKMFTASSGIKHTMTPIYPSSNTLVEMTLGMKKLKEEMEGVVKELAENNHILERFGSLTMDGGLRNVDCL
UniProt P51617: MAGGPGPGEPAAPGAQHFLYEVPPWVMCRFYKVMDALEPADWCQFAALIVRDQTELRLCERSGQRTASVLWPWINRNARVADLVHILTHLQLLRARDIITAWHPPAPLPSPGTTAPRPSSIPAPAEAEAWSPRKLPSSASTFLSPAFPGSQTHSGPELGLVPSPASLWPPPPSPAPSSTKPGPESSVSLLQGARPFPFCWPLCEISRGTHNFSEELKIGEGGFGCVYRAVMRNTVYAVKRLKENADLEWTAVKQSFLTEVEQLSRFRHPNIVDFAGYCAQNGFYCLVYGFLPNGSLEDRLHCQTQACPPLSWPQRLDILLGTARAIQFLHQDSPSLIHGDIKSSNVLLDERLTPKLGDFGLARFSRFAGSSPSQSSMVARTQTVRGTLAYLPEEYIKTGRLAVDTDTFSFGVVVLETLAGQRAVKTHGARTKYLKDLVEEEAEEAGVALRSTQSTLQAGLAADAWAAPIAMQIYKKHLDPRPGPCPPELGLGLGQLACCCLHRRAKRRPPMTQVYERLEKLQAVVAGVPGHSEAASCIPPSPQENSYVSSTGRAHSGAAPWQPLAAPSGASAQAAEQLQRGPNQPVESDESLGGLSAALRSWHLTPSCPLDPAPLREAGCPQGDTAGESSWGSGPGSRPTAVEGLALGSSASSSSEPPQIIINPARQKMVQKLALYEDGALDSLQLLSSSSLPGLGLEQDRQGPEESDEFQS
UniProt O60826: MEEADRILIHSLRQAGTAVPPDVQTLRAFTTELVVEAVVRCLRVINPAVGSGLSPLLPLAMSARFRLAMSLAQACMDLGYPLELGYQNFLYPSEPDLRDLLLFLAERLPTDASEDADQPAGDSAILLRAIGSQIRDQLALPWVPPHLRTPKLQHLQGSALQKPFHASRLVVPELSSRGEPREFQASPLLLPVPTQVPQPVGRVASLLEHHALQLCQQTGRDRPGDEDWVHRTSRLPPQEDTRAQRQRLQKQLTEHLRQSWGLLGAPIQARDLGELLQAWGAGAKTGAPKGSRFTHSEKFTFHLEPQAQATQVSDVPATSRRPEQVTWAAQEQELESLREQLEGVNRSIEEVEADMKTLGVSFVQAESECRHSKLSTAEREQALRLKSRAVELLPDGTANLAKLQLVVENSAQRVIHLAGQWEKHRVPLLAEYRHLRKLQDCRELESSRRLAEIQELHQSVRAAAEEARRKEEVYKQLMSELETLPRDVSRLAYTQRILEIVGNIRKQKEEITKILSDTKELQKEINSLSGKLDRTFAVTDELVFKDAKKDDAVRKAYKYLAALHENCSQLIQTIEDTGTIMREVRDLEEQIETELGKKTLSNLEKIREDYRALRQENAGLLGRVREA
UniProt P78504, residues 34-1218: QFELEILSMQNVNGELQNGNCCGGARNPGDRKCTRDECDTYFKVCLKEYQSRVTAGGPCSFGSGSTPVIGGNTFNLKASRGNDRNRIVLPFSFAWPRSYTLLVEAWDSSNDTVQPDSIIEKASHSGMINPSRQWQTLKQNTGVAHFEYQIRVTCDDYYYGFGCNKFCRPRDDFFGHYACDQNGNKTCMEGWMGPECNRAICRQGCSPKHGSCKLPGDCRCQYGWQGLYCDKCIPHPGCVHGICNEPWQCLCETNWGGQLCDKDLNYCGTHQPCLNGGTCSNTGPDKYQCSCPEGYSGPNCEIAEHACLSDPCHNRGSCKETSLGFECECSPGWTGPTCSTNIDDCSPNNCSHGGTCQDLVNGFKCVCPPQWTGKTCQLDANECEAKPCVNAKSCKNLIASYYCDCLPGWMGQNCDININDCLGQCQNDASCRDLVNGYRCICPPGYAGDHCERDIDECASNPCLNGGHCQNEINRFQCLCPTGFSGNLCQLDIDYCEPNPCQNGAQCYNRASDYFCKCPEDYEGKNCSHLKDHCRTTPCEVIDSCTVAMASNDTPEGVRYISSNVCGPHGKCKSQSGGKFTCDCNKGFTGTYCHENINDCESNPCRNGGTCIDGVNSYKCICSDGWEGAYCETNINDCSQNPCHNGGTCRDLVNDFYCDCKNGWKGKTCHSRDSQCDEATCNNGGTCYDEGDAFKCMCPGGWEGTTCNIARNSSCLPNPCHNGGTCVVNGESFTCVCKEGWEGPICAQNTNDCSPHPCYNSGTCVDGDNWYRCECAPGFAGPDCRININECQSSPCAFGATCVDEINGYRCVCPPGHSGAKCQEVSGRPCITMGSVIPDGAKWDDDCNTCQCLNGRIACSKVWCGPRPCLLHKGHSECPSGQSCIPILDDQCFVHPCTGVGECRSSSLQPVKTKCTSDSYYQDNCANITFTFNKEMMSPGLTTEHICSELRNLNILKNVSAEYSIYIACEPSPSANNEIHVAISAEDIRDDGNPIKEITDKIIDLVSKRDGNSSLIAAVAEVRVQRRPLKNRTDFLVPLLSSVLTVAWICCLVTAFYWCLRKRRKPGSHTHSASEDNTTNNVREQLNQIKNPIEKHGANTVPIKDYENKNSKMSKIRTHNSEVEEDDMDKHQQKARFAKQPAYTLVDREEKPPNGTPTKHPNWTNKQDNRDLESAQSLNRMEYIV
UniProt Q9Y6K9: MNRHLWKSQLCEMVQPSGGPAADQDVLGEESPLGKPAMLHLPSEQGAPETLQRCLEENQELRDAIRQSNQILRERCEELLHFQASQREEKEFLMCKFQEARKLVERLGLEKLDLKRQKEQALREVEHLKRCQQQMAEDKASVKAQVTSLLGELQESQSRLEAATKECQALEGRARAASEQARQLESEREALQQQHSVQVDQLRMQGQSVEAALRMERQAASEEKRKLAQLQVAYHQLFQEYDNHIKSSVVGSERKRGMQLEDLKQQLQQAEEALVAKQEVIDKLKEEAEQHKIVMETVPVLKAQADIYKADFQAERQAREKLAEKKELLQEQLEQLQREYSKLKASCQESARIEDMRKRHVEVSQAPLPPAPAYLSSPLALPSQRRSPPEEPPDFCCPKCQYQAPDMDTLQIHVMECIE
UniProt Q04206: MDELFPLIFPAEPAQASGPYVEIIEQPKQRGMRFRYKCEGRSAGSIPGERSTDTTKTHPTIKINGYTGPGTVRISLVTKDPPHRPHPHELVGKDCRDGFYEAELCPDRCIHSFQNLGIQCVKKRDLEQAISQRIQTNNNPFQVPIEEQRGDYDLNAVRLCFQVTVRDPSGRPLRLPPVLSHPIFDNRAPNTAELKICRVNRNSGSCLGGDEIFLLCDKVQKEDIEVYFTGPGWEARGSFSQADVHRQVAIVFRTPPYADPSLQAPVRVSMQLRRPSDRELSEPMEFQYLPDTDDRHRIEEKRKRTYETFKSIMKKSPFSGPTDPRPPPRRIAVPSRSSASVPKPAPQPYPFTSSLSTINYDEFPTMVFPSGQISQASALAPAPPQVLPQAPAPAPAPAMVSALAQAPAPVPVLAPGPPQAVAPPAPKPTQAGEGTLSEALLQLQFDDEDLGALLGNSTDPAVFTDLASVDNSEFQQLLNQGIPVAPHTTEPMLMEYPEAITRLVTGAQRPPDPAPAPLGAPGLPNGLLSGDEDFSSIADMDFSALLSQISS

T1: PTP1B bait of the BioID assay (HEK293 Flip-In PTP1B cells) (UniProt P18031)
T1 sequence: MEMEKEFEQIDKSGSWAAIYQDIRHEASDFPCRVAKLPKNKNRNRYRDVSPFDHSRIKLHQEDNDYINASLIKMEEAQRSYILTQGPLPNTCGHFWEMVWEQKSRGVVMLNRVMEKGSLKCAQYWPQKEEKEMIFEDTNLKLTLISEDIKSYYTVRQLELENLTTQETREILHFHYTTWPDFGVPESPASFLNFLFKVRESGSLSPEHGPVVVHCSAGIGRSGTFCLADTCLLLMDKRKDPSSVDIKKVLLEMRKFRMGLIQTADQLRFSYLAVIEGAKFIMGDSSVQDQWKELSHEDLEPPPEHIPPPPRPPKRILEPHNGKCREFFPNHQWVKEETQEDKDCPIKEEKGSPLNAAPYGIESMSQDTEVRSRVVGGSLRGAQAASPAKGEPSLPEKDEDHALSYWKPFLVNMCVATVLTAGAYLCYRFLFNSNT

T2: protein tyrosine phosphatase 1B (PTP1B) (human (endogenous in U251 and KM12SM)) (UniProt P18031)
T2 sequence: T1 sequence

B1: EFHD2 (protein, UniProt Q96C19 1-240)
chain: MATDELATKLSRRLQMEGEGGGETPEQPGLNGAAAAAAGAPDEAAEALGSADCELSAKLLRRADLNQGIGEPQSPSRRVFNPYTEFKEFSRKQIKDMEKMFKQYDAGRDGFIDLMELKLMMEKLGAPQTHLGLKNMIKEVDEDFDSKLSFREFLLIFRKAAAGELQEDSGLCVLARLSEIDVSSEGVKGAKSFFEAKVQAINVSSRFEEEIKAEQEERKKQAEEMKQRKAAFKELQSTFK
B2: IKBIP (protein, UniProt Q70UQ0 1-350)
chain: MSEVKSRKKSGPKGAPAAEPGKRSEGGKTPVARSSGGGGWADPRTCLSLLSLGTCLGLAWFVFQQSEKFAKVENQYQLLKLETNEFQQLQSKISLISEKWQKSEAIMEQLKSFQIIAHLKRLQEEINEVKTWSNRITEKQDILNNSLTTLSQDITKVDQSTTSMAKDVGLKITSVKTDIRRISGLVTDVISLTDSVQELENKIEKVEKNTVKNIGDLLSSSIDRTATLRKTASENSQRINSVKKTLTELKSDFDKHTDRFLSLEGDRAKVLKTVTFANDLKPKVYNLKKDFSRLEPLVNDLTLRIGRLVTDLLQREKEIAFLSEKISNLTIVQAEIKDIKDEIAHISDMN
B3: NFKBIB (protein, UniProt Q15653 1-356)
chain: MAGVACLGKAADADEWCDSGLGSLGPDAAAPGGPGLGAELGPGLSWAPLVFGYVTEDGDTALHLAVIHQHEPFLDFLLGFSAGTEYMDLQNDLGQTALHLAAILGETSTVEKLYAAGAGLCVAERRGHTALHLACRVGAHACARALLQPRPRRPREAPDTYLAQGPDRTPDTNHTPVALYPDSDLEKEEEESEEDWKLQLEAENYEGHTPLHVAVIHKDVEMVRLLRDAGADLDKPEPTCGRSPLHLAVEAQAADVLELLLRAGANPAARMYGGRTPLGSAMLRPNPILARLLRAHGAPEPEGEDEKSGPCSSSSDSDSGDEGDEYDDIVVHSSRSQTRLPPTPASKPLPDDPRPV
B4: NFKBIE (protein, UniProt O00221 1-500)
chain: MNQRRSESRPGNHRLQAYAEPGKGDSGGAGPLSGSARRGRGGGGAIRVRRPCWSGGAGRGGGPAWAVRLPTVTAGWTWPALRTLSSLRAGPSEPHSPGRRPPRAGRPLCQADPQPGKAARRSLEPDPAQTGPRPARAAGMSEARKGPDEAEESQYDSGIESLRSLRSLPESTSAPASGPSDGSPQPCTHPPGPVKEPQEKEDADGERADSTYGSSSLTYTLSLLGGPEAEDPAPRLPLPHVGALSPQQLEALTYISEDGDTLVHLAVIHEAPAVLLCCLALLPQEVLDIQNNLYQTALHLAVHLDQPGAVRALVLKGASRALQDRHGDTALHVACQRQHLACARCLLEGRPEPGRGTSHSLDLQLQNWQGLACLHIATLQKNQPLMELLLRNGADIDVQEGTSGKTALHLAVETQERGLVQFLLQAGAQVDARMLNGCTPLHLAAGRGLMGISSTLCKAGADSLLRNVEDETPQDLTEESLVLLPFDDLKISGKLLLCTD

The molecules below were run against T1, PTP1B bait of the BioID assay (HEK293 Flip-In PTP1B cells) (assay: proximity labelling; proximity biotinylation BioID coupled with mass spectrometry in HEK293 Flip-In PTP1B cells; methods in the supplementary information).

With MAVS (from UniProt Q7Z434 1-540) as the molecule, how does the binding read?
Its binding is “binds”.

TBK1 (from UniProt Q9UHD2 1-729) was tested. Which binding did it give?
Its binding is “binds”.

For IRAK1 (from UniProt P51617 1-712), which binding is on record?
Its binding is “binds”.

Which binding does the source give for CCDC22 (from UniProt O60826 1-627) here?
The binding was “binds”.

Which binding does the source give for B1 here?
Its binding is “binds”.

Which binding does the source give for B2 here?
The binding was “binds”.

The molecules below were run against T2, protein tyrosine phosphatase 1B (PTP1B) (human (endogenous in U251 and KM12SM)) (assay: affinity purification with mass spectrometry; 1 mg of U251 cell lysate immunoprecipitated with anti-PTP1B (#sc-133115) or an irrelevant control antibody; SDS-PAGE, in-gel trypsin digestion, mass spectrometry; fold-change threshold of 3 against the control antibody, CRAPome filter).

With JAG1 (from UniProt P78504 34-1218) as the molecule, how does the binding read?
The binding was “binds”.

With “NEMO (IKBKG) (from UniProt Q9Y6K9 1-419)” as the molecule, how does the binding read?
Its binding is “binds”.

Which binding does the source give for “fibronectin (FN) (from UniProt P02751 32-2477)” here?
The binding was “binds”.

How did the binding turn out when “NF-κB p65 subunit (RELA) (from UniProt Q04206 1-551)” was run?
The binding was “binds”.

How did the binding turn out when “casein kinase 2 (CSNK2) (human (endogenous in U251)) (enzyme)” was run?
The binding was “binds”.

With “Tenascin-C (TNC) (from UniProt P24821 23-2201)” as the molecule, how does the binding read?
The binding was “binds”.

B3 was tested. Which binding did it give?
The binding was “binds”.

How did the binding turn out when B4 was run?
The binding was “binds”.
